Source: PubChem BioAssay AID720505 (Drosophila RNAi Screening Center, 2013)
In all, the deposit lists about 20,000 reagents; this is a random part of those that have a named target and a result. In the full data, about 2,100 (10%) are marked active. 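Raw plate signals without normalisation; calls rest on control-based scores that were not deposited; replicate 2 separates called from uncalled poorly.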 A number with no mark means an inactive call. A plus sign joins genes that one reagent is predicted to hit. Not given: the amount of reagent, the time to read-out.

Test: 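Fly regulators or components of the CRAC channel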 (primary screen)
Cells: Drosophila S2R+ cells
Knock-down reagent: long dsRNA against Drosophila genes
Challenge: thapsigargin (2 µM) in calcium-free buffer to empty internal stores, then 2 mM calcium added back
Measurement: 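Fluo-4 signal in 384-well plates read on a FLIPR after thapsigargin (2 µM, calcium-free) store depletion and 2 mM calcium add-back; unnormalised mean endpoint per well; screen run twice, selected wells retested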
Scale: calcium signal and retest calcium signal: higher = more calcium entry after store depletion
Hit rule: 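Knock-downs counted as hits when calcium entry dropped relative to STIM1 positive and Rho1 negative controls present on each plate; roughly 1500 genes called, with reductions of differing size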
Meaning of the calls: active = called as lowering calcium entry; inactive = not called

predicted target	amplicon	calcium signal, replicate 1	calcium signal, replicate 2	retest calcium signal, replicate 1	retest calcium signal, replicate 2
CG10863	DRSC08145	105	121		
Hsp60A (Heat shock protein 60A)	DRSC20254	122	69.2		
CG33514	DRSC08471	73.4	88	85.9	93.1
CG33514	DRSC08472	81.9	82		
CG33514	DRSC21670	209	99.9		
Grl58a (Gustatory receptor-like 58a)	DRSC04145	190	85.1		
Mitofilin	DRSC16742	129	181		
qm (quemao)	DRSC11386	83.4	36.7		
LanB1	DRSC03360	151	257		
shps (sheepish)	DRSC14614	263	170		
mfas (midline fasciclin)	DRSC16997	138	124		
Lhr (Lethal hybrid rescue)	DRSC06759	166	105		
hb (hunchback)	DRSC16963	90.1	127		
Myo95E (Myosin 95E)	DRSC15821	165	187		
Cfp1 (CXXC finger protein 1)	DRSC18128	63.3 (active)	78.1		
CG14915	DRSC02399	176	181		
CG42380 + CG42379 + PIG-M + 1 more	DRSC03884	65.5 (active)	4620		
CG42380 + CG42379 + PIG-M + 1 more	DRSC04580	90	85.8		
CG4836	DRSC15659	188	206		
CG4836	DRSC22066	114	250		
CtsL4 (Cathepsin L4)	DRSC02849	165	133		
PTP-ER (Protein tyrosine phosphatase-ERK/Enhancer of Ras1)	DRSC04636	209	78.7		
PTP-ER (Protein tyrosine phosphatase-ERK/Enhancer of Ras1)	DRSC23325	115	148		
CG12075	DRSC17801	192	163		
Inx2 (Innexin 2)	DRSC18783	173	100		
l(2)SH0834 (lethal (2) SH0834)	DRSC02854	199	129		
Pect (Phosphoethanolamine cytidylyltransferase)	DRSC02867	78.7	106		
Pect (Phosphoethanolamine cytidylyltransferase)	DRSC02868	89.2	121		
Idgf5 (Imaginal disc growth factor 5)	DRSC06919	156	88		
CG3611	DRSC04395	132	160		
CG14265	DRSC18591	70.1	113		
CG10185	DRSC14205	140	136		
CG31789	DRSC01645	75.9	138		
CG2209	DRSC19843	133	114		
meso18E	DRSC20351	78	103		
dl (dorsal)	DRSC03520	91.4	111		
dl (dorsal)	DRSC03521	143	155		
CG2006	DRSC15412	59.5 (active)	94.8	148	72.4
wda (will decrease acetylation)	DRSC15579	239	109	7434	173
wda (will decrease acetylation)	DRSC22351	128	234		
srp (serpent)	DRSC17068	203	218		
srp (serpent)	DRSC23166	160	130		
CG8679	DRSC03109	236	88.8		
CG12914	DRSC06229	97.3	106		
l(3)05822 (lethal (3) 05822)	DRSC16202	202	316		
CG8861	DRSC16449	99.6	75.6		
asf1 (anti-silencing factor 1)	DRSC11324	98.1	101		
CG30265	DRSC21592	135	92.2		
Pcf11 (Pcf11 cleavage and polyadenylation factor subunit)	DRSC05983	125	83.2		
Lamp1	DRSC03727	141	115		
CG13747	DRSC06418	109	99.7		
CHOp24	DRSC18310	119	159		
Zip42C.2 (Zinc/iron regulated transporter-related protein 42C.2)	DRSC05004	129	174		
Smn (survival motor neuron)	DRSC10223	97.3	116		
prom (prominin)	DRSC04684	155	155		
prom (prominin)	DRSC21463	120	88.3		
prom (prominin)	DRSC22088	76.9	203		
nAChRalpha5 (nicotinic Acetylcholine Receptor alpha5)	DRSC01360	64.3 (active)	78.6		
nAChRalpha5 (nicotinic Acetylcholine Receptor alpha5)	DRSC01946	128	138		
nAChRalpha5 (nicotinic Acetylcholine Receptor alpha5)	DRSC01947	113	159	101	101
nAChRalpha5 (nicotinic Acetylcholine Receptor alpha5)	DRSC22785	109	153		
me31B (maternal expression at 31B)	DRSC03569	99.1	126		
phol (pleiohomeotic like)	DRSC10367	107	126		
Arfip (Arfaptin)	DRSC15179	74.7 (active)	138		
CG43190	DRSC05316	72.1	111		
CG4282	DRSC06865	147	95		
CG14861	DRSC14984	140	240		
CG4853	DRSC06898	113	138		
Cp16 (Chorion protein 16)	DRSC11119	113	84.6		
CG42490 (retired record)	DRSC01649	74.3	115		
CG9717	DRSC16543	192	223		
pho (pleiohomeotic)	DRSC17219	112	169		
elg1 (enhanced level of genomic instability 1)	DRSC10229	115	117		
Lcp1 (Larval cuticle protein 1)	DRSC07455	117	98.5		
stck (steamer duck)	DRSC17070	167	138		
TrpRS (Tryptophanyl-tRNA synthetase)	DRSC14097	109	93.9		
CG13133	DRSC02230	125	88.7		
CG14357	DRSC14820	122	137		
l(2)10685 (lethal (2) 10685)	DRSC00665	106	206		
CG8675	DRSC20117	76.4 (active)	106		
RpS24 (Ribosomal protein S24)	DRSC04414	81.4	123	104	105
IPIP (Inositol phosphatase interacting protein)	DRSC02164	116	215		
CG9427	DRSC16490	132	149		
CG18508	DRSC18155	105	131		
dbf (doublefault)	DRSC02570	196	173		
Tis11 (Tis11 zinc finger protein)	DRSC20293	158	94.1		
Tis11 (Tis11 zinc finger protein)	DRSC23110	160	170		
CG13506	DRSC04150	104	127		
CG14074	DRSC10079	122	148		
snoRNA:U31:54Ec + snoRNA:snR38:54Eb + snoRNA:U27:54Eb + 8 more	DRSC06458	113	142		
Stip1 (Stress induced phosphoprotein 1)	DRSC00756	92.3	196		
RIOK1 (RIO kinase 1)	DRSC09853	105	89.7		
gish (gilgamesh)	DRSC16154	170	239		
Ncoa6 (Nuclear receptor coactivator 6)	DRSC02353	98.6	166		
Ncoa6 (Nuclear receptor coactivator 6)	DRSC23060	78.1	160		
CG16879 (retired record)	DRSC01918	128	164	109	130
CG16879 (retired record)	DRSC22849	98	112		
Cpr47Ed (Cuticular protein 47Ed)	DRSC07331	89.3	178		
Sf3b1 (Splicing factor 3b subunit 1)	DRSC00535	32.2 (active)	40.3		
r + CG13012	DRSC19531	85.4	98.2		
CG2972	DRSC18250	156	119		
Ntan1 (N-terminal amidohydrolase 1)	DRSC07546	173	162		
CG1138	DRSC12530	120	149		
CG17036	DRSC02564	89.8	151		
CG4766	DRSC17736	242	120		
abd-A (abdominal A)	DRSC16897	129 (active)	70.7		
abd-A (abdominal A)	DRSC23013	124	141		
